According to ChEMBL document CHEMBL5674883, “The Heterochromatin Landscape in Migrating Cells and the Importance of H3K27me3 for Associated Transcriptome Alterations” (Cells, 2018):
The source gives many values for each of these; only a part stands here.

The chains behind the UniProt entries cited, without tags or fusion partners.
UniProt Q61188, whole entry: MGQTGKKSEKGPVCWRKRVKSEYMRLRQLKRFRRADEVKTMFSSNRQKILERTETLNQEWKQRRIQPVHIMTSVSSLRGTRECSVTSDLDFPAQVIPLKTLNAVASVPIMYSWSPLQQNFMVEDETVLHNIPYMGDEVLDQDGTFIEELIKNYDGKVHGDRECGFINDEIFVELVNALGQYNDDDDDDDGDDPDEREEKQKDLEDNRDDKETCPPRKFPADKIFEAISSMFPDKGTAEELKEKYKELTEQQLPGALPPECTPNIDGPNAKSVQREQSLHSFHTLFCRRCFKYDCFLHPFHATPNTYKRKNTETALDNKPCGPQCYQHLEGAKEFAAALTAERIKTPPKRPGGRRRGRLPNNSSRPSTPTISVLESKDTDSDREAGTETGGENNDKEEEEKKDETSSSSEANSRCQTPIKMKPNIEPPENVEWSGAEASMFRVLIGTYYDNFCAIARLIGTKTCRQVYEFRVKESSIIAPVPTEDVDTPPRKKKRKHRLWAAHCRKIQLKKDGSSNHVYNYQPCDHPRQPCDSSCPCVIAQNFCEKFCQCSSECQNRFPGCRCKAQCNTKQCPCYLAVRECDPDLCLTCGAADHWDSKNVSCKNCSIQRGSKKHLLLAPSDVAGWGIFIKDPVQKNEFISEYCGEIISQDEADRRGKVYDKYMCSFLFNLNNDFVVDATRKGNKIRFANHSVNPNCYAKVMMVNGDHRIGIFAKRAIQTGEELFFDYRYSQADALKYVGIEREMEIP

Key:
Assay type in all cases: cell-based
[1] = target: Histone-lysine N-methyltransferase EZH2 (Mus musculus) (UniProt Q61188); assay: Inhibition of EZH2 in mouse B16-F1 migrating cells assessed as fold change in H3K27me3-buffered regulated Irs1-mRNA expression at 3 uM measured by ChIP-seq analysis relative to control cells
[2] = target: Histone-lysine N-methyltransferase EZH2 (Mus musculus) (UniProt Q61188); assay: Inhibition of EZH2 in mouse B16-F1 migrating cells assessed as fold change in H3K27me3-independent regulated Ripor2-mRNA expression at 3 uM measured by ChIP-seq analysis relative to control cells
[3] = target: Histone-lysine N-methyltransferase EZH2 (Mus musculus) (UniProt Q61188); assay: Inhibition of EZH2 in mouse B16-F1 migrating cells assessed as fold change in H3K27me3-buffered regulated Gm44806-mRNA expression at 3 uM measured by ChIP-seq analysis relative to control cells
[4] = target: Histone-lysine N-methyltransferase EZH2 (Mus musculus) (UniProt Q61188); assay: Inhibition of EZH2 in mouse B16-F1 migrating cells assessed as fold change in H3K27me3-buffered regulated Tcf4-mRNA expression at 3 uM measured by ChIP-seq analysis relative to control cells
[5] = target: Histone-lysine N-methyltransferase EZH2 (Mus musculus) (UniProt Q61188); assay: Inhibition of EZH2 in mouse B16-F1 migrating cells assessed as fold change in H3K27me3-buffered regulated Pkm-mRNA expression at 3 uM measured by ChIP-seq analysis relative to control cells
[6] = target: Histone-lysine N-methyltransferase EZH2 (Mus musculus) (UniProt Q61188); assay: Inhibition of EZH2 in mouse B16-F1 migrating cells assessed as fold change in H3K27me3-buffered regulated Mapk8ip1-mRNA expression at 3 uM measured by ChIP-seq analysis relative to control cells
[7] = target: Histone-lysine N-methyltransferase EZH2 (Mus musculus) (UniProt Q61188); assay: Inhibition of EZH2 in mouse B16-F1 migrating cells assessed as fold change in H3K27me3-buffered regulated Bcl9l-mRNA expression at 3 uM measured by ChIP-seq analysis relative to control cells
[8] = target: Histone-lysine N-methyltransferase EZH2 (Mus musculus) (UniProt Q61188); assay: Inhibition of EZH2 in mouse B16-F1 migrating cells assessed as fold change in H3K27me3-buffered regulated Snora31-mRNA expression at 3 uM measured by ChIP-seq analysis relative to control cells
[9] = target: Histone-lysine N-methyltransferase EZH2 (Mus musculus) (UniProt Q61188); assay: Inhibition of EZH2 in mouse B16-F1 migrating cells assessed as fold change in H3K27me3-buffered regulated Mki67-mRNA expression at 3 uM measured by ChIP-seq analysis relative to control cells
[10] = target: Histone-lysine N-methyltransferase EZH2 (Mus musculus) (UniProt Q61188); assay: Inhibition of EZH2 in mouse B16-F1 migrating cells assessed as fold change in H3K27me3-buffered regulated Sil1-mRNA expression at 3 uM measured by ChIP-seq analysis relative to control cells
[11] = target: Histone-lysine N-methyltransferase EZH2 (Mus musculus) (UniProt Q61188); assay: Inhibition of EZH2 in mouse B16-F1 migrating cells assessed as fold change in H3K27me3-buffered regulated Lrrc27-mRNA expression at 3 uM measured by ChIP-seq analysis relative to control cells
[12] = target: T1, RNA polymerase II (Mus musculus) (UniProt P08775+Q8CFI7+P97760+A0A3Q4L2S8+Q80UW8+P61219+P62488+Q923G2+P60898+O08740+Q63871+P62876); assay: Inhibition of RNA polymerase II in mouse B16-F1 migrating cells assessed as fold change in Cdca7-RNA stability at 0.1 mM measured by ChIP-seq analysis relative to control cells
[13] = target: T1, RNA polymerase II (Mus musculus); assay: Inhibition of RNA polymerase II in mouse B16-F1 migrating cells assessed as fold change in Abcb6-RNA stability at 0.1 mM measured by ChIP-seq analysis relative to control cells
[14] = target: T1, RNA polymerase II (Mus musculus); assay: Inhibition of RNA polymerase II in mouse B16-F1 migrating cells assessed as fold change in Casp8ap2-RNA stability at 0.1 mM measured by ChIP-seq analysis relative to control cells
[15] = target: T1, RNA polymerase II (Mus musculus); assay: Inhibition of RNA polymerase II in mouse B16-F1 migrating cells assessed as fold change in Grik2-RNA stability at 0.1 mM measured by ChIP-seq analysis relative to control cells
[16] = target: T1, RNA polymerase II (Mus musculus); assay: Inhibition of RNA polymerase II in mouse B16-F1 migrating cells assessed as fold change in Kdelr3-RNA stability at 0.1 mM measured by ChIP-seq analysis relative to control cells
[17] = target: T1, RNA polymerase II (Mus musculus); assay: Inhibition of RNA polymerase II in mouse B16-F1 migrating cells assessed as fold change in Bdp1-RNA stability at 0.1 mM measured by ChIP-seq analysis relative to control cells
[18] = target: T1, RNA polymerase II (Mus musculus); assay: Inhibition of RNA polymerase II in mouse B16-F1 migrating cells assessed as fold change in Gstp2-RNA stability at 0.1 mM measured by ChIP-seq analysis relative to control cells
[19] = target: T1, RNA polymerase II (Mus musculus); assay: Inhibition of RNA polymerase II in mouse B16-F1 migrating cells assessed as fold change in Fam208a-RNA stability at 0.1 mM measured by ChIP-seq analysis relative to control cells
[20] = target: T1, RNA polymerase II (Mus musculus); assay: Inhibition of RNA polymerase II in mouse B16-F1 migrating cells assessed as fold change in Usp45-RNA stability at 0.1 mM measured by ChIP-seq analysis relative to control cells
[21] = target: T1, RNA polymerase II (Mus musculus); assay: Inhibition of RNA polymerase II in mouse B16-F1 migrating cells assessed as fold change in Zfp472-RNA stability at 0.1 mM measured by ChIP-seq analysis relative to control cells
[22] = target: T1, RNA polymerase II (Mus musculus); assay: Inhibition of RNA polymerase II in mouse B16-F1 migrating cells assessed as fold change in Mzt1-RNA stability at 0.1 mM measured by ChIP-seq analysis relative to control cells
[23] = target: T1, RNA polymerase II (Mus musculus); assay: Inhibition of RNA polymerase II in mouse B16-F1 migrating cells assessed as fold change in Dnajc10-RNA stability at 0.1 mM measured by ChIP-seq analysis relative to control cells
[24] = target: T1, RNA polymerase II (Mus musculus); assay: Inhibition of RNA polymerase II in mouse B16-F1 migrating cells assessed as fold change in Trim59-RNA stability at 0.1 mM measured by ChIP-seq analysis relative to control cells
[25] = target: T1, RNA polymerase II (Mus musculus); assay: Inhibition of RNA polymerase II in mouse B16-F1 migrating cells assessed as fold change in Eif2ak2-RNA stability at 0.1 mM measured by ChIP-seq analysis relative to control cells
[26] = target: T1, RNA polymerase II (Mus musculus); assay: Inhibition of RNA polymerase II in mouse B16-F1 migrating cells assessed as fold change in Zfx-RNA stability at 0.1 mM measured by ChIP-seq analysis relative to control cells
[27] = target: T1, RNA polymerase II (Mus musculus); assay: Inhibition of RNA polymerase II in mouse B16-F1 migrating cells assessed as fold change in Fmr1-RNA stability at 0.1 mM measured by ChIP-seq analysis relative to control cells
[28] = target: T1, RNA polymerase II (Mus musculus); assay: Inhibition of RNA polymerase II in mouse B16-F1 migrating cells assessed as fold change in Zfyve19-RNA stability at 0.1 mM measured by ChIP-seq analysis relative to control cells
[29] = target: T1, RNA polymerase II (Mus musculus); assay: Inhibition of RNA polymerase II in mouse B16-F1 migrating cells assessed as fold change in Cyba-RNA stability at 0.1 mM measured by ChIP-seq analysis relative to control cells
[30] = target: T1, RNA polymerase II (Mus musculus); assay: Inhibition of RNA polymerase II in mouse B16-F1 migrating cells assessed as fold change in Fbxo5-RNA stability at 0.1 mM measured by ChIP-seq analysis relative to control cells

CCCc1cc(C)[nH]c(=O)c1CNC(=O)c1cc(-c2ccnc(N3CCN(C)CC3)c2)cc2c1cnn2C(C)C
log2FC [1]: -0.63 | log2FC [2]: -1.23 | log2FC [3]: 1.17 | log2FC [4]: -0.47 | log2FC [5]: 0.38 | log2FC [6]: 0.38 | log2FC [7]: -0.51 | log2FC [8]: -1.37 | log2FC [9]: -0.39 | log2FC [10]: 0.46 | log2FC [11]: 0.42

OC[C@H]1O[C@@H](n2cnc3cc(Cl)c(Cl)cc32)[C@H](O)[C@@H]1O
log2FC [12]: -0.86 | log2FC [13]: 0.62 | log2FC [14]: -0.81 | log2FC [15]: -0.74 | log2FC [16]: 0.83 | log2FC [17]: -0.79 | log2FC [18]: 0.62 | log2FC [19]: -0.64 | log2FC [20]: -0.62 | log2FC [21]: -0.81 | log2FC [22]: -0.49 | log2FC [23]: -0.4 | log2FC [24]: -0.72 | log2FC [25]: -0.4 | log2FC [26]: -0.96 | log2FC [27]: -0.68 | log2FC [28]: 0.55 | log2FC [29]: 0.6 | log2FC [30]: -0.89
